{
  "source": "paper PMC7737755",
  "key": {"C/EBPβ [1]": {"system": "C/EBPβ", "assay": "EMSA", "details": "2 ug nuclear extract; LightShift Chemiluminescent EMSA kit (Pierce 20148), manufacturer's protocol, 2 ug nuclear extract per reaction; protein in a lysate after overexpression; label: biotin end label"}, "C/EBPβ [2]": {"system": "C/EBPβ", "assay": "EMSA, supershift", "details": "2 ug nuclear extract, supershifted by C/EBPβ antibody; LightShift Chemiluminescent EMSA kit (Pierce 20148), manufacturer's protocol, 2 ug nuclear extract per reaction; protein in a lysate after overexpression; label: biotin end label"}},
  "note": "Construct, isoform or probe ends are uncertain for at least one entry. At least one result comes from cells or an extract, where the contact may be indirect. For some assays here: A negative result means that nothing was seen under these conditions.",
  "data": [
    {"sequence": "TCAATTCAAGGAAGGCAG (double strand) [Mut C/EBP probe]", "values": [
      {"measurement": "binding result", "setting": "C/EBPβ [1]", "result": "no binding"}
    ]},
    {"sequence": "TCAATTCTTACTCCACAG (double strand) [WT C/EBP probe (DLEU2 / pri-mir15a/mir16-1 promoter)]", "values": [
      {"measurement": "binding result", "setting": "C/EBPβ [2]", "result": "binds"}
    ]}
  ]
}
